The comparison behind a weaker result is the experiment's own reference, which may not be listed here. For some of these results: Where a protein sequence is shown, tags need not be part of it. For some of these results: For at least one entry, the source does not settle the construct or the ends of the probe. For some of these results: At least one verdict rests on a figure or table, not on a statement of the authors.
How the values were obtained:
[1] = target: T1, OrfL (Streptococcus thermophilus ICESt3) (UniProt Q935T9); experiment: EMSA; details: 0.02% PFA, 0.2 uM DNA, 0-12 uM protein, EMSA: 20 mM HEPES, 150 mM NaCl, 37 C 15 min, then 0.02% PFA 1 h 37 C (without PFA no notable shift on various unnamed ss/dsDNA substrates, data not shown), recombinant protein, protein details: 6xHis-TEV removed (TEV cleaved)
T1 sequence (looked up, limits assumed): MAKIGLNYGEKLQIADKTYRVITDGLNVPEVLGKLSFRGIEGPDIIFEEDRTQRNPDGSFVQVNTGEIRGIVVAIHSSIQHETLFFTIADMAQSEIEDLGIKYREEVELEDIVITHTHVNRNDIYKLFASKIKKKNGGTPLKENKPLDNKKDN

[2] = target: OrfM (Streptococcus thermophilus ICESt3) (UniProt Q70CB0); experiment: EMSA; details: 0.02% PFA, 0.2 uM DNA, 0-12 uM protein, EMSA: 20 mM HEPES, 150 mM NaCl, 37 C 15 min, then 0.02% PFA 1 h 37 C (without PFA no notable shift on various unnamed ss/dsDNA substrates, data not shown), recombinant protein, protein details: 6xHis-TEV removed (TEV cleaved)
[3] = tested on: OrfL in OrfL-OrfM complex + OrfM in OrfL-OrfM complex; experiment: EMSA; details: 0.02% PFA, pre-formed 1:1 complex, EMSA: 20 mM HEPES, 150 mM NaCl, 37 C 15 min, then 0.02% PFA 1 h 37 C (without PFA no notable shift on various unnamed ss/dsDNA substrates, data not shown), recombinant protein
[4] = target: T1, OrfL (Streptococcus thermophilus ICESt3); experiment: switchSENSE; details: no PFA; switchSENSE: 25 mM Tris-HCl pH 8.0, 100 mM NaCl, 25 C; recombinant protein; protein details: 6xHis-TEV removed (TEV cleaved)
[5] = target: OrfM (Streptococcus thermophilus ICESt3) (UniProt Q70CB0); experiment: switchSENSE; details: no PFA; switchSENSE: 25 mM Tris-HCl pH 8.0, 100 mM NaCl, 25 C; recombinant protein; protein details: 6xHis-TEV removed (TEV cleaved)
[6] = slightly higher affinity than dsDNA, label: 5' 6-FAM, single-stranded DNA

Does “GAGACTTCAACCCCCGATTTCTAATAGGGGGGTTACATTTTCAAGATTTAGAAAGTGTGTCACTTTGGTCCAAAAAGTGTGTCACTTAGTCAAAAGGAG (double strand) [EMSA dsDNA (oriT)]” bind ([1]; label: 5' 6-FAM on strand 1)?
Result: binds more weakly

Does “GAGACTTCAACCCCCGATTTCTAATAGGGGGGTTACATTTTCAAGATTTAGAAAGTGTGTCACTTTGGTCCAAAAAGTGTGTCACTTAGTCAAAAGGAG (double strand) [EMSA dsDNA (oriT)]” bind ([2]; label: 5' 6-FAM on strand 1)?
Result: binds more weakly

Does “GAGACTTCAACCCCCGATTTCTAATAGGGGGGTTACATTTTCAAGATTTAGAAAGTGTGTCACTTTGGTCCAAAAAGTGTGTCACTTAGTCAAAAGGAG (double strand) [EMSA dsDNA (oriT)]” bind ([3]; label: 5' 6-FAM on strand 1)?
Result: binds more weakly

Does “GAGACTTCAACCCCCGATTTCTAATAGGGGGGTTACATTTTCAAGATTTAGAAAGTGTGTCACTTTGGTCCAAAAAGTGTGTCACTTAGTCAAAAGGAG [EMSA ssDNA (oriT)]” bind [1, 6]?
Result: binds more weakly

Does “GAGACTTCAACCCCCGATTTCTAATAGGGGGGTTACATTTTCAAGATTTAGAAAGTGTGTCACTTTGGTCCAAAAAGTGTGTCACTTAGTCAAAAGGAG [EMSA ssDNA (oriT)]” bind [2, 6]?
Result: binds more weakly

Does “GAGACTTCAACCCCCGATTTCTAATAGGGGGGTTACATTTTCAAGATTTAGAAAGTGTGTCACTTTGGTCCAAAAAGTGTGTCACTTAGTCAAAAGGAG [EMSA ssDNA (oriT)]” bind [3, 6]?
Result: binds more weakly

What does the source list for “GAGACTTCAACCCCCGATTTCTAATAGGGGGGTTACATTTTCAAGATTTAGAAAGTGTGTCACTTTGGTCCAAAAAGTGTGTCACTTAGTCAAAAGGAGATATATCAGCGTTCGATGCTTCCGACTAATCAGCCATATCAGCTTACGACTA / CTCCTTTTGACTAAGTGACACACTTTTTGGACCAAAGTGACACACTTTCTAAATCTTGAAAATGTAACCCCCCTATTAGAAATCGGGGGTTGAAGTCTC [dsDNA-overhang on nanolever]”?
binding result [4]: binds more weakly; binding result [5]: binds more weakly

Does “GAGACTTCAACCCCCGATTTCTAATAGGGGGGTTACATTTTCAAGATTTAGAAAGTGTGTCACTTTGGTCCAAAAAGTGTGTCACTTAGTCAAAAGGAGATATATCAGCGTTCGATGCTTCCGACTAATCAGCCATATCAGCTTACGACTA [ssDNA-overhang on nanolever]” bind [4]?
Result: binds more weakly

Does “GAGACTTCAACCCCCGATTTCTAATAGGGGGGTTACATTTTCAAGATTTAGAAAGTGTGTCACTTTGGTCCAAAAAGTGTGTCACTTAGTCAAAAGGAGATATATCAGCGTTCGATGCTTCCGACTAATCAGCCATATCAGCTTACGACTA [ssDNA-overhang on nanolever]” bind [5]?
Result: binds more weakly
